In patent US6346514B1, “Pharmaceutical lysine-containing polypeptide compositions and methods of use thereof” (priority 1991, dated 2002):
Further values from the same series stand in other lists.

Test system: Vibrio anguillarum (V-775)
Experiment: Vaccine augmentation in Rainbow trout challenged with Vibrio anguillarum
Type: in vivo, Rainbow trout (Oncorhynchus mykiss)
Description: In the present investigation, fish were obtained and inoculated at approximately 12 weeks of age. Immunologic studies were conducted under a variety of conditions in which fish were provided with vaccination to observe vaccine augmentation, and under conditions in which no vaccine was provided prior to inoculum. The effects of exposure time, HM897 concentration, and vaccine on mortalities relative to control studies in which no HM897 was administered provided data for analysis of the immunologic effect of HM897.
The study was conducted using Rainbow trout (Oncorhynchus mykiss) to compare the effects of a standard fish vaccine to the protection provided by varying dosages of HM897. The fish were challenged with Vibrio anguillarum (V-775), a bacteria that causes fatal vibriosis, typically 3-5 days following pathogen exposure.
Rainbow Trout (Oncorhynchus mykiss) weighing approximately 5 grams were used as test organisms. The fish were obtained from Cran-Mar Trout Farm. Upon arrival at BRL's facility, the fish were quarantined for a minimum of seven days, and observed to be disease free. During this period, the fish were held at a stable temperature. There was consistent water quality in an aerated flow-through system with a flow rate of approximately 30 liters per hour. During the holding period the fish were observed daily for signs of disease, stress, injury, hemorrhaging, and external parasite. The fish were not fed 48 hours prior to testing.
The Rainbow trout used in this study weighed an average of 5 grams. The fish were divided into 21 groups with 50 fish per group. Each group of 50 fish was maintained in two 10-gallon tanks (25 fish/tank).
The level of bacterial dilution to achieve a LD75 (the level designed to kill 75% of the non-vaccinated fish) was a dilution of 10^−4. to 10^−5. The challenge bacteria were grown for 48 hours at 25° C in trypticase soy broth. The 10^−4 dilution was made from this broth in 0.9% saline. All fish excepting the control group that received no bacterial challenge were inoculated 7 days after exposure to HM897.
Rainbow trout hatchling were exposed to the concentration of HM897 as described below. Some of the fish had been vaccinated while others had received no vaccination. In each tank, fifty vaccinated or unvaccinated fish were exposed for a period of 5 minutes to HM897, and then removed and placed in an assigned tank according to the group number.
The positive control group (III) received a vaccine made from Vibrio anguillarum (V-775). This was made through a fermentation and extraction process in the BRL laboratory facility and is equivalent to the aquaculture industry standard vibrio vaccine.
All groups scheduled to be challenged with the Vibrio anguillarum bacterium were challenged at the LD75 dilution on day seven of the experiment by i.p. injection of 0.1 mL of 10^−4 bacterial dilution. The fish were observed daily for mortalities.

## Thr-Ala-Glu-Glu-Lys (TAEEK) [HM897]
Day 1, Group Ve: not vaccinated, HM897 250 μg/38 liters
  Cumulative Mortalities: 0
Day 2.10, Group Ve: not vaccinated, HM897 250 μg/38 liters
  Cumulative Mortalities: 0
Day 11, Group Ve: not vaccinated, HM897 250 μg/38 liters
  Cumulative Mortalities: 0
Day 12, Group Ve: not vaccinated, HM897 250 μg/38 liters
  Cumulative Mortalities: 0
Day 13, Group Ve: not vaccinated, HM897 250 μg/38 liters
  Cumulative Mortalities: 14
Day 14, Group Vd: not vaccinated, HM897 150 μg/38 liters
  Cumulative Mortalities: 23
Day 14, Group Ve: not vaccinated, HM897 250 μg/38 liters
  Cumulative Mortalities: 25
Day 15, Group Vd: not vaccinated, HM897 150 μg/38 liters
  Cumulative Mortalities: 28
Day 15, Group Ve: not vaccinated, HM897 250 μg/38 liters
  Cumulative Mortalities: 30
Day 16, Group Vd: not vaccinated, HM897 150 μg/38 liters
  Cumulative Mortalities: 32
Day 16, Group Ve: not vaccinated, HM897 250 μg/38 liters
  Cumulative Mortalities: 32
Day 17, Group Vd: not vaccinated, HM897 150 μg/38 liters
  Cumulative Mortalities: 32
Day 17, Group Ve: not vaccinated, HM897 250 μg/38 liters
  Cumulative Mortalities: 34
Day 18, Group Ve: not vaccinated, HM897 250 μg/38 liters
  Cumulative Mortalities: 34
Day 19, Group Ve: not vaccinated, HM897 250 μg/38 liters
  Cumulative Mortalities: 34
Day 20, Group Ve: not vaccinated, HM897 250 μg/38 liters
  Cumulative Mortalities: 34
Day 21, Group Ve: not vaccinated, HM897 250 μg/38 liters
  Cumulative Mortalities: 34
